This is one part of the list.
Assays:
Experiment in all cases: log2 fold change, soluble protein after heating vs DMSO (PISA); higher = thermal stabilisation; K562 lysate, 10 uM; active = over 0.2 and 3.5 SD of the protein, either way, in both replicates (recomputed)
[1] = compound: Cc1cn(-c2cc(NC(=O)c3ccc(C)c(Nc4nccc(-c5cccnc5)n4)c3)cc(C(F)(F)F)c2)cn1 [nilotinib]
In short: (§1)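 Dounce homogenisation of K562 pellets in PBS pH 7.4 with 1 mM MgCl2 produced a crude extract, used at 1 mg/mL protein. Exposure to 10 μM compound lasted 30 min, and aliquots were then heated for 3 min across 48°C-58°C, pooled and brought to 0.5% NP-40 at 4°C. The supernatant after 21,000xg for 90 min was quantified by TMTpro 16plex LC-MS/MS with channel sums equalised. Duplicate values are given as log-two fold change in thermal stability relative to solvent controls.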

Sequences of proteins named here, by UniProt entry; tags and fusion partners are left off. A change or cut given only in a name is not applied to a line headed by its entry.
UniProt Q9NXX6: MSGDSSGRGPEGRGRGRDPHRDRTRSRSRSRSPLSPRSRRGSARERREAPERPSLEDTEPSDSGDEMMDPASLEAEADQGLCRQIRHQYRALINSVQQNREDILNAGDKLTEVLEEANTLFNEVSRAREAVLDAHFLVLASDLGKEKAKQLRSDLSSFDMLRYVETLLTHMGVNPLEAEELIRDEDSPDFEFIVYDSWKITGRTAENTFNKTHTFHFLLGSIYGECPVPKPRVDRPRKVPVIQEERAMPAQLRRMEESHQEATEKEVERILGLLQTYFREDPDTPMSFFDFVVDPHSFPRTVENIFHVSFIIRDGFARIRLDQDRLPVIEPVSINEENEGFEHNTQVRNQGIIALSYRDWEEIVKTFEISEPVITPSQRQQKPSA
UniProt Q5C9Z4: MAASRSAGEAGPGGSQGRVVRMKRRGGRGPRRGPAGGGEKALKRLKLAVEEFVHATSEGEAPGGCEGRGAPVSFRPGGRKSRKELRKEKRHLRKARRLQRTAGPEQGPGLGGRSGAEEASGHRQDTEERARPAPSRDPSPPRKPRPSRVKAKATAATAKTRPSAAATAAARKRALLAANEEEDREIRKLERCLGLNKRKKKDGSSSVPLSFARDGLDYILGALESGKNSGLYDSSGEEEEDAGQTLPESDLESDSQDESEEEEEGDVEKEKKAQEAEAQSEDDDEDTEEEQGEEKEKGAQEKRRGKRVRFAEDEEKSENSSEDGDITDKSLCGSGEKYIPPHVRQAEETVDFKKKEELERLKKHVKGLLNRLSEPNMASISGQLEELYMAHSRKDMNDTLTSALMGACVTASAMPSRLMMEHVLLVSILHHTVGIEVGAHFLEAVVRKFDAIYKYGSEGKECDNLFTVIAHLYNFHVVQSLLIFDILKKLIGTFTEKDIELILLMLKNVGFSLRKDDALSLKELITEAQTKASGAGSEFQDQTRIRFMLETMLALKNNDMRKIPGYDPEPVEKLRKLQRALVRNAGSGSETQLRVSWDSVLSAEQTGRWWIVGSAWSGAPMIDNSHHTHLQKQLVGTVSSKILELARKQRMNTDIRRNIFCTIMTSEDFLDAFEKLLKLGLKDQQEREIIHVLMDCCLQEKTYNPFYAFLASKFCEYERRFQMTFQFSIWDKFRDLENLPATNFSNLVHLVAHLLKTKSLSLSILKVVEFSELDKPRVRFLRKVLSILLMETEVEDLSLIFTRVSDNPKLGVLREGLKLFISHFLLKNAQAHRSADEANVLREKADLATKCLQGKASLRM
UniProt Q8NC60: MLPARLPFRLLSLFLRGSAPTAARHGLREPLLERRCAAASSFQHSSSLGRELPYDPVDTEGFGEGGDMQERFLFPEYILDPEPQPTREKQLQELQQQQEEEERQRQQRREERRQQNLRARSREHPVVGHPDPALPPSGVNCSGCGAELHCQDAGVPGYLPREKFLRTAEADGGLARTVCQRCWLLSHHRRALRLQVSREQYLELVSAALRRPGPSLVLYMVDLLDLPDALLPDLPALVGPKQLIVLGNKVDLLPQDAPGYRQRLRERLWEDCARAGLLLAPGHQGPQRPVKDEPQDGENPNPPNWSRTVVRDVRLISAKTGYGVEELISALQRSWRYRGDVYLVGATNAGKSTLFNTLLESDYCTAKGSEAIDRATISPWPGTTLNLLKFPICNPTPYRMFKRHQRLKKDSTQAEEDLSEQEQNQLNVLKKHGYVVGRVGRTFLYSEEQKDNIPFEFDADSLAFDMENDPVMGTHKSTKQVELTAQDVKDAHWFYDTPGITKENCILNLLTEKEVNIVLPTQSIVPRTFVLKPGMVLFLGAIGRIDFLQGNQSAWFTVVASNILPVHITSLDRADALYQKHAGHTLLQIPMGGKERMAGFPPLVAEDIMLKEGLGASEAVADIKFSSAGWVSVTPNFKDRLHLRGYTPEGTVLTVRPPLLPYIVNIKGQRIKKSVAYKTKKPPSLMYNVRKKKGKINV
UniProt P04150: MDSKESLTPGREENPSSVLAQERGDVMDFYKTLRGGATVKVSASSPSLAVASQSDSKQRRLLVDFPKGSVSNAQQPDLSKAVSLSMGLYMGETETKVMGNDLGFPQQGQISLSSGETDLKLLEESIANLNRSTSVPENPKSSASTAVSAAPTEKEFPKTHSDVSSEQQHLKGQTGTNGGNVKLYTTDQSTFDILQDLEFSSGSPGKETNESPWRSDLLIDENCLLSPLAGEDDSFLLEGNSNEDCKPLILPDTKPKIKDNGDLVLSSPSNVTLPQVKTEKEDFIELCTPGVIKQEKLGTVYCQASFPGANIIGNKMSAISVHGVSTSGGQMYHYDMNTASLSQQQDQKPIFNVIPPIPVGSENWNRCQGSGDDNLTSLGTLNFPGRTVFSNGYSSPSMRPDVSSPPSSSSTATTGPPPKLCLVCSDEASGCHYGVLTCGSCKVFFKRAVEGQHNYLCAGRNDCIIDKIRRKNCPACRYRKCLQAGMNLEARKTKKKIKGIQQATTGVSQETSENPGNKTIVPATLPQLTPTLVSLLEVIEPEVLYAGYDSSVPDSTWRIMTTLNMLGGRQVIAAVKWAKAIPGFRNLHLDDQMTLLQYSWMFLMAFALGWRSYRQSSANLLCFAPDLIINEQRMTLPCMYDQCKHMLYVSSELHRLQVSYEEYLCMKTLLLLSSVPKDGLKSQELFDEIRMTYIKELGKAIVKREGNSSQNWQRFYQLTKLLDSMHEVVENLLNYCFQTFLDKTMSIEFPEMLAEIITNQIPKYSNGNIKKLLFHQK
UniProt Q8WV74: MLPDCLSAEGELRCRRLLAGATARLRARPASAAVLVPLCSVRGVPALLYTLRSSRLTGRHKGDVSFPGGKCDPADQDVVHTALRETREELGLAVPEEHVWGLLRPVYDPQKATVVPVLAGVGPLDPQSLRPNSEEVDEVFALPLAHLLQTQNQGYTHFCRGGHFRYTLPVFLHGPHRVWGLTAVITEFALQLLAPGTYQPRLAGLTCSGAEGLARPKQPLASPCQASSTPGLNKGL
UniProt Q08J23, whole entry, looked up: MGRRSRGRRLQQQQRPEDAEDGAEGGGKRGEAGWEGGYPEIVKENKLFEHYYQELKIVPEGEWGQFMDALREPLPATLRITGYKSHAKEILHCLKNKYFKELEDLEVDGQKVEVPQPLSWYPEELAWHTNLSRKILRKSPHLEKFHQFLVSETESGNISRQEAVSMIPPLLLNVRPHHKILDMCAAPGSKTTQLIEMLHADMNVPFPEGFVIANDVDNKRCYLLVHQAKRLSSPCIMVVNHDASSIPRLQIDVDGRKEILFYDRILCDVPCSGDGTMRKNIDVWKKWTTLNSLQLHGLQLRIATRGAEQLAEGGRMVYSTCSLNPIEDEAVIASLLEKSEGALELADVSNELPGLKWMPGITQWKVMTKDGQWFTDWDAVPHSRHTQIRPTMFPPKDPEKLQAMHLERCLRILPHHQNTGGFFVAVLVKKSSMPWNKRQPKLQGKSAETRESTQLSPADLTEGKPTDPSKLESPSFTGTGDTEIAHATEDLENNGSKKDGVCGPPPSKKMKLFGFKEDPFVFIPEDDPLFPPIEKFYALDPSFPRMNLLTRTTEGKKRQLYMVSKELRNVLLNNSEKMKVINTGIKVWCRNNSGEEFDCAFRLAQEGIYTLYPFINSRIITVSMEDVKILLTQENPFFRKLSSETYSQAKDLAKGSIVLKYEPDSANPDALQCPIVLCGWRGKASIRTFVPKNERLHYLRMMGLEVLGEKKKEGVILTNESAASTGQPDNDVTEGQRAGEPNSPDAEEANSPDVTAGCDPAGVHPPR
UniProt Q9UGY1: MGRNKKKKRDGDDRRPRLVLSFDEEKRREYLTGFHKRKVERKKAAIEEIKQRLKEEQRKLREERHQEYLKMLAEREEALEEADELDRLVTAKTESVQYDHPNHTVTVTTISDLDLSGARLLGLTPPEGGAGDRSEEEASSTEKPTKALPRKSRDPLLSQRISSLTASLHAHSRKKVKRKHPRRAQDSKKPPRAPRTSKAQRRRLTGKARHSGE
UniProt Q9GZP1: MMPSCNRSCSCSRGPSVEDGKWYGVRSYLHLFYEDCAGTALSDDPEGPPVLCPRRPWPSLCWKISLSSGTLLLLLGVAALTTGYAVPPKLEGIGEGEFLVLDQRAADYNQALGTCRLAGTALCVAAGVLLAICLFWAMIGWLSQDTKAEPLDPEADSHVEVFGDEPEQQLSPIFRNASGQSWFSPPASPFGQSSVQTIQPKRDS
UniProt Q8TB37: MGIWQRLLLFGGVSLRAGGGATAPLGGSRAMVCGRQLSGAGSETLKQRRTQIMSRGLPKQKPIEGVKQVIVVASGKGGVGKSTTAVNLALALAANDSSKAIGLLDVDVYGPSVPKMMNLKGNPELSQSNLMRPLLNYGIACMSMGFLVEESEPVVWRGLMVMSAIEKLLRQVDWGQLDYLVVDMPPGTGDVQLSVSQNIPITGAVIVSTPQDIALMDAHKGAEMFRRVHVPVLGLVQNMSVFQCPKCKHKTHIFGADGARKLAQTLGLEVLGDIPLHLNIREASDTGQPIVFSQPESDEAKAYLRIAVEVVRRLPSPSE
UniProt P04629: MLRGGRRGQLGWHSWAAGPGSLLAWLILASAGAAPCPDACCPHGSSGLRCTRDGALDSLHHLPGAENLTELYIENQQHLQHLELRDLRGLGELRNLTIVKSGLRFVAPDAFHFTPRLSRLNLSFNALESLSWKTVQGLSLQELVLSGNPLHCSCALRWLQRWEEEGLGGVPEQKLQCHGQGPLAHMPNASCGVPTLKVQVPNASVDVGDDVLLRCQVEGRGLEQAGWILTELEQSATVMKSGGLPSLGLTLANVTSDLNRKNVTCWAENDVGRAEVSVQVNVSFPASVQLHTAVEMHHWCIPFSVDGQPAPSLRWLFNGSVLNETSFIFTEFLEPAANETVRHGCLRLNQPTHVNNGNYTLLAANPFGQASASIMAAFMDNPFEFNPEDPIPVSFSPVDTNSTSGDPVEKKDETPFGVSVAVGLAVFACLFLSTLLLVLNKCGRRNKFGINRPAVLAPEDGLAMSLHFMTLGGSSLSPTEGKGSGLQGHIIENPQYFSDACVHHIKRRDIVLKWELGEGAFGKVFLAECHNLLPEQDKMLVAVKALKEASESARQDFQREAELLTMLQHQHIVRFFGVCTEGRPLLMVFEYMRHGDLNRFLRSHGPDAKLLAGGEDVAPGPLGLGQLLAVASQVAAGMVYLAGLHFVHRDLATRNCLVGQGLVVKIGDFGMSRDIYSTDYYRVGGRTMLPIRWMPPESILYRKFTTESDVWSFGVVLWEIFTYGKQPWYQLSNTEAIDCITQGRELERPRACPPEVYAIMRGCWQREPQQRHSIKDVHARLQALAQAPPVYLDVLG
UniProt Q14978: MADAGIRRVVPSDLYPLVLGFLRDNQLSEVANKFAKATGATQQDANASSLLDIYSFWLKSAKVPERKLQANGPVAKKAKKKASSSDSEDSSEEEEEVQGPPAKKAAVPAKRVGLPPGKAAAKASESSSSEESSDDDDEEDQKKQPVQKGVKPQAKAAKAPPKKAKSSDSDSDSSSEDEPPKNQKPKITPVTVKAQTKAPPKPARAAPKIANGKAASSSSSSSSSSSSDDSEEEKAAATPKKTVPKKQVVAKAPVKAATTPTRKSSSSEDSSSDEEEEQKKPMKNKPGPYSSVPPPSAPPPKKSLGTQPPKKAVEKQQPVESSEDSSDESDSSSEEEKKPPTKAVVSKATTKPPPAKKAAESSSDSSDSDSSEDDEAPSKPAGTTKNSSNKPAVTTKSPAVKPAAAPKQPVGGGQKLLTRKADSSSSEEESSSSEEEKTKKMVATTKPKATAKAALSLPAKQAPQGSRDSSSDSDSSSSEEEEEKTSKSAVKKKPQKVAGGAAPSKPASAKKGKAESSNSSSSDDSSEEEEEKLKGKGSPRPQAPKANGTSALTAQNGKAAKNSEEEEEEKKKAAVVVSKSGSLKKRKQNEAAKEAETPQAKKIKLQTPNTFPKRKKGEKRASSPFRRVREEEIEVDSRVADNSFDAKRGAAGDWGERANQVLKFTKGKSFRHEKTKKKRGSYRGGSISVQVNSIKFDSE
UniProt Q96MY1: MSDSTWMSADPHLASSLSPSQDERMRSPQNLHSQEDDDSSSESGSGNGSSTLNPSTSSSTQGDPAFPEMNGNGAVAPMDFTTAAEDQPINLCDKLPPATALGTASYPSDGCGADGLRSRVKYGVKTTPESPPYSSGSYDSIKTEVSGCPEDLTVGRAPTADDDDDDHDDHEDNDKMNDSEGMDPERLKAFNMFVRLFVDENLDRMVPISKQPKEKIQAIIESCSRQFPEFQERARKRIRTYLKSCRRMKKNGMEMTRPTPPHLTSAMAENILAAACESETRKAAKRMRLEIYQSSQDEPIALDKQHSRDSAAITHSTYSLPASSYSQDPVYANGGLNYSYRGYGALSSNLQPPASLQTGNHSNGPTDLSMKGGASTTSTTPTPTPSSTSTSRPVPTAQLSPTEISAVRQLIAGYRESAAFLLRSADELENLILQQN

[2] = compound: Cc1nc(Nc2n[nH]c3c2CN(C(=O)N[C@H](CN(C)C)c2ccccc2)C3(C)C)c2sccc2n1
In short: as §1

[3] = compound: Cc1nc(Nc2ncc(C(=O)Nc3c(C)cccc3Cl)s2)cc(N2CCN(CCO)CC2)n1 [dasatinib]
In short: as §1

[4] = compound: Cc1ncc(-c2ccnc(Nc3ccc(S(C)(=O)=O)cc3)n2)n1C(C)C
In short: as §1

[5] = compound: Cn1cc(-c2ccc3c(c2)CCN3C(=O)Cc2cccc(C(F)(F)F)c2)c2c(N)ncnc21
In short: as §1

[6] = compound: Cn1cncc1[C@@](N)(c1ccc(Cl)cc1)c1ccc2c(c1)c(-c1cccc(Cl)c1)cc(=O)n2C [tipifarnib]
In short: as §1

[7] = compound: NC(=O)c1cnc(N[C@@H]2CCCC[C@@H]2N)nc1Nc1cccc(-n2nccn2)c1
In short: as §1

[8] = compound: NC1(c2ccc(-c3nc4ccn5c(=O)[nH]nc5c4cc3-c3ccccc3)cc2)CCC1
In short: as §1

[9] = compound: NCC(=O)Nc1ccc(-n2nc(C(F)(F)F)cc2-c2ccc3c(ccc4ccccc43)c2)cc1
In short: as §1

[10] = compound: O=C(CCCCCCC(=O)Nc1ccccc1)NO [vorinostat]
In short: as §1

[11] = compound: O=C(O)c1ccc2c(c1)nc(Nc1cccc(Cl)c1)c1ccncc12 [silmitasertib]
In short: as §1

[12] = compound: c1cn2cc(-c3ccc4cn[nH]c4c3)nc(Nc3ccc(N4CCOCC4)cc3)c2n1 [entospletinib]
In short: as §1

[13] = compound: Cn1cc(CNCC2CCN(c3ncc(C(=O)NO)cn3)CC2)c2ccccc21 [quisinostat]
In short: as §1

[14] = compound: NC(=O)Nc1cc(-c2cccc(F)c2)sc1C(=O)N[C@H]1CCCNC1
In short: as §1

[15] = compound: O=C1NC(=O)C(c2cnc3ccccn23)=C1c1cn2c3c(cc(F)cc13)CN(C(=O)N1CCCCC1)CC2
In short: as §1

Measured: log2 fold change

NSD1 (UniProt Q96L73)
inactive: [1] 0.001 | [2] -0.063 | [3] -0.01 | [4] 0.006 | [5] 0.123 | [6] -0.052 | [7] -0.004 | [8] -0.096 | [9] -0.1 | [10] -0.027 | [11] 0.084 | [12] 0.069

NSMCE4A (UniProt Q9NXX6)
inactive: [1] -0.026 | [2] -0.023 | [3] -0.017 | [4] -0.049 | [5] 0.045 | [13] -0.029 | [6] 0.032 | [14] 0.006 | [7] 0.02 | [8] -0.003 | [9] 0 | [10] -0.164 | [11] -0.048 | [15] -0.022 | [12] 0.046

NOM1 (UniProt Q5C9Z4)
inactive: [1] 0.096 | [2] -0.219 | [3] -0.076 | [4] -0.103 | [5] 0.196 | [13] 0.049 | [6] 0 | [14] -0.013 | [7] 0.013 | [9] -0.208 | [15] 0.065 | [12] 0.053

NOA1 (UniProt Q8NC60)
active: [10] -0.411
inactive: [1] -0.041 | [2] -0.012 | [3] -0.05 | [4] -0.011 | [5] -0.036 | [13] -0.089 | [6] -0.027 | [14] 0.059 | [7] 0.04 | [8] -0.001 | [9] 0.065 | [11] 0.049 | [15] 0.048 | [12] -0.008

NR3C1 isoform 3 (UniProt P04150)
inactive: [1] -0.021 | [2] -0.069 | [3] -0.042 | [4] 0.044 | [5] -0.014 | [13] -0.032 | [6] -0.038 | [14] 0.035 | [7] 0.03 | [8] -0.021 | [9] -0.124 | [11] 0.05 | [15] 0.046 | [12] -0.064

NUDT8 (UniProt Q8WV74)
inactive: [1] -0.038 | [2] 0.288 | [3] 0.108 | [4] -0.087 | [5] -0.054 | [13] -0.294 | [6] -0.136 | [14] 0.009 | [7] 0.022 | [8] 0.037 | [9] 0.127 | [10] 0.149 | [11] -0.007 | [15] -0.154 | [12] -0.106

NSUN2 (UniProt Q08J23)
active: [10] -0.42
inactive: [1] 0.013 | [2] -0.004 | [3] -0.023 | [4] -0.005 | [5] 0.022 | [13] 0.007 | [6] 0.027 | [14] 0.024 | [7] -0.009 | [8] -0.011 | [9] 0.004 | [11] 0.03 | [15] -0.007 | [12] 0.011

NOL12 (UniProt Q9UGY1)
inactive: [1] 0.037 | [2] 0.215 | [3] -0.007 | [4] -0.068 | [5] 0.005 | [13] 0.028 | [6] 0.214 | [14] -0.051 | [7] -0.033 | [8] 0.046 | [9] -0.06 | [10] 0.055 | [11] 0.046 | [15] 0.172 | [12] -0.037

2 consecutive records out of the list so far:
NOM1 (UniProt Q5C9Z4)
inactive: [1] 0.096 | [2] -0.219 | [3] -0.076 | [4] -0.103 | [5] 0.196 | [13] 0.049 | [6] 0 | [14] -0.013 | [7] 0.013 | [9] -0.208 | [15] 0.065 | [12] 0.053

NOA1 (UniProt Q8NC60)
active: [10] -0.411
inactive: [1] -0.041 | [2] -0.012 | [3] -0.05 | [4] -0.011 | [5] -0.036 | [13] -0.089 | [6] -0.027 | [14] 0.059 | [7] 0.04 | [8] -0.001 | [9] 0.065 | [11] 0.049 | [15] 0.048 | [12] -0.008

Following part

NSA2 (UniProt O95478)
inactive: [1] 0.102 | [2] -0.04 | [3] -0.323 | [4] -0.08 | [5] -0.113 | [6] -0.004 | [7] 0.076 | [8] -0.15 | [9] 0.035 | [10] -0.073 | [11] -0.042 | [12] 0.208

NRSN2 (UniProt Q9GZP1)
inactive: [3] 0.347 | [5] 0.087

NME3 (UniProt H3BPR2)
inactive: [7] 0.007

NT5C (UniProt J3KSX6)
inactive: [7] 0.115

NTMT1 (UniProt S4R338)
inactive: [7] -0.027

NSDHL (UniProt C9JDR0)
inactive: [1] -0.177 | [2] 0.165 | [4] 0.056 | [6] 0.006 | [7] 0.048

NUBPL (UniProt Q8TB37)
inactive: [3] -0.119 | [5] 0.052 | [9] 0.356 | [12] -0.097

NTRK1 (UniProt P04629)
inactive: [3] -0.002 | [5] 0.138 | [13] -0.114 | [14] 0.315 | [9] -0.05 | [15] -0.083 | [12] -0.03

NOLC1 isoform 3 (UniProt Q14978)
inactive: [3] -0.052 | [5] -0.012 | [13] 0.135 | [14] 0.032 | [7] 0.034 | [8] 0.103 | [10] 0.244 | [11] -0.033 | [15] 0.036 | [12] 0.148

NOL4L (UniProt Q96MY1)
inactive: [3] 0.007 | [5] 0.005 | [7] -0.062 | [8] -0.047 | [10] -0.06 | [11] 0.036 | [12] -0.053

NUDT7 (UniProt P0C024)
inactive: [3] -0.087 | [5] -0.003 | [13] 0.012 | [14] -0.004 | [7] 0.109 | [8] -0.012 | [9] 0.015 | [10] 0.19 | [11] -0.07 | [15] 0.15 | [12] -0.037
